Experimental findings from PMC5673238 are described below.

Assay [1] has as its target V5-CB1_(SH3-) (collybistin splice isoform CB1 without SH3 domain) (rat). As to the kind of experiment: co-IP; HEK-293T cells co-transfected with VSVG-Cdc42 and V5-CB1_(SH3-) or V5-CB2_(SH3-), with or without FLAG-gephyrin; lysate first depleted of free active Cdc42 with GST-PKB beads; IP with antibody against VSVG, WB for V5.
Assay [2] has as its target V5-CB2_(SH3-) (collybistin splice isoform CB2 without SH3 domain) (rat). Described as above.

These are yes or no findings as the source states them, for the method shown. Binding seen in cells or lysates may run through a third protein. A result given as binding can be weak or reduced; the word gives no strength. Tags and fused reporters may be left off the sequences shown.

B1: FLAG-gephyrin (protein, UniProt Q03555 1-768)
chain: MATEGMILTNHDHQIRVGVLTVSDSCFRNLAEDRSGINLKDLVQDPSLLGGTISAYKIVPDEIEEIKETLIDWCDEKELNLILTTGGTGFAPRDVTPEKFPTFPFCGLQKGATKEVIEREAPGMALAMLMGSLNVTPLGMLSRPVCGIRGKTLIINLPGSKKGSQECFQFILPALPHAIDLLRDAIVKVKEVHDELEDLPSPPPPLSPPPTTSPHKQTEDKGVQCEEEEEEKKDSGVASTEDSSSSHITAAALAAKIPDSIISRGVQVLPRDTASLSTTPSESPRAQATSRLSTASCPTPKQIRRPDESKGVASRVGSLKVQSRCSSKENILRASHSAVDITKVARRHRMSPFPLTSMDKAFITVLEMTPVLGTEIINYRDGMGRVLAQDVYAKDNLPPFPASVKDGYAVRAADGPGDRFIIGESQAGEQPTQTVMPGQVMRVTTGAPIPCGADAVVQVEDTELIRESDDGTEELEVRILVQARPGQDIRPIGHDIKRGECVLAKGTHMGPSEIGLLATVGVTEVEVNKFPVVAVMSTGNELLNPEDDLLPGKIRDSNRSTLLATIQEHGYPTINLGIVGDNPDDLLNALNEGISRADVIITSGGVSMGEKDYLKQVLDIDLHAQIHFGRVFMKPGLPTTFATLDIDGVRKIIFALPGNPVSAVVTCNLFVVPALRKMQGILDPRPTIIKARLSCDVKLDPRPEYHRCILTWHHQEPLPWAQSTGNQMSSRLMSMRSANGLLMLPPKTEQYVELHKGEVVDVMVIGRL
Regarding B1, the binding entry in assay [1] and in assay [2] was “binds” each time.
